Data on 1 molecule can be found in the GenesisPotency data set.

The structures appear in SMILES notation. About 910 (0.23%) of roughly 390,000 compounds were called active. Roughly 5% stayed inconclusive and do not appear here. The call rests on the fitted dose curve; in most records, active means well fitted inhibition curve with a large enough effect; inconclusive means small, poorly fitted or top-dose-only effect; inactive means no such curve, though single readings can be large or run the other way. The list shows a part of the results.

In the experiment the target is T1, Ubiquitin carboxyl-terminal hydrolase 1, Homo sapiens (UniProt O94782).
T1 sequence (whole entry): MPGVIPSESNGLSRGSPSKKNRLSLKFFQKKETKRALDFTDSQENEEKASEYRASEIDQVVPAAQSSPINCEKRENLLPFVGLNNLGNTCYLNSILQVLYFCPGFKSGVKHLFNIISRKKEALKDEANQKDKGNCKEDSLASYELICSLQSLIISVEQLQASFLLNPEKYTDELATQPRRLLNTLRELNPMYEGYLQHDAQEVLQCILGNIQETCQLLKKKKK
The experiment can be described thus: Inhibitors of USP1/UAF1: Primary Screen.
Turning to `COc1cc(/C=C2\S/C(=N/S(=O)(=O)c3ccccc3)NC2=O)c([N+](=O)[O-])cc1OC`, the outcome was inactive.
